According to paper PMC9968170 (Pharmaceutics, 2023):
Where two headings read alike, the source gives them in different places.

The chains behind the UniProt entries cited, without tags or fusion partners. Where a name states a change or a piece, a line headed by the entry shows the natural chain unless it says otherwise.
UniProt Q80W57: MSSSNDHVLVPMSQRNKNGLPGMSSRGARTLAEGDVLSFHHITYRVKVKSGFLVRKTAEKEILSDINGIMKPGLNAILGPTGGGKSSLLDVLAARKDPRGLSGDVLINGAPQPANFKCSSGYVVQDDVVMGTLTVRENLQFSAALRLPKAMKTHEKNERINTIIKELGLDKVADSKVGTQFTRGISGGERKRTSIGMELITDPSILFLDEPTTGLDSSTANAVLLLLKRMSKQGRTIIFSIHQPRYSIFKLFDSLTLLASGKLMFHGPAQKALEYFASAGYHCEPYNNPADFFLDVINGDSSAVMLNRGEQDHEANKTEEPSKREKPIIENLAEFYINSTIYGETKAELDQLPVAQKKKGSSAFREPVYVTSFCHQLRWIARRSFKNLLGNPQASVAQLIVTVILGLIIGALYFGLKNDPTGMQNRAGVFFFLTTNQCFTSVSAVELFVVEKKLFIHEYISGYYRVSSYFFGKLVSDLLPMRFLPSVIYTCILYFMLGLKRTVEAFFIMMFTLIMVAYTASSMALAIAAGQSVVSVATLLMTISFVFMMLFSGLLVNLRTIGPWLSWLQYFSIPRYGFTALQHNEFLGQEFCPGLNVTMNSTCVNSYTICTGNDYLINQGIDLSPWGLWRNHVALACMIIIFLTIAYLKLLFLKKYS

Key:
[1] = FUR alone 5 mg/kg PO; fed and fasted data pooled
Bcrp = Bcrp (Rattus norvegicus, UniProt Q80W57)
[2] = fasted state, FUR 5 mg/kg PO, NOV 20 mg/kg PO, vs FUR alone
[3] = fed state, FUR 5 mg/kg PO, NOV 20 mg/kg PO, vs FUR alone
[4] = female rats, FUR 5 mg/kg PO, NOV 20 mg/kg PO, vs FUR alone
[5] = irrespective of food and sex, n = 5
[6] = male rats, FUR 5 mg/kg PO, NOV 20 mg/kg PO, vs FUR alone

For `NS(=O)(=O)c1cc(C(=O)O)c(NCc2ccco2)cc1Cl` [FUR, Furosemide], the “FUR AUC, female compared to male rats” value [1] was ~ 2 fold, the “FUR Cmax, female compared to male rats” value [1] was ~ 2 fold and the “Effect of NOV co-administration on CLR of FUR” value (Bcrp; FUR 5 mg/kg PO, NOV 20 mg/kg PO, CLR = Ae0-6 h/AUC0-6 h) was “no effect”. The “Increase of FUR AUC with NOV coadministration” value (“Increase of FUR AUC” below) (Bcrp; [2]) was 3 fold, the “Increase of FUR Cmax with NOV coadministration” value (“Increase of FUR Cmax” for short) (Bcrp; [2]) was 3 fold and the “Increase of FUR AUC” value (Bcrp; [3]) was 2 fold. The “Increase of FUR Cmax” value (Bcrp; [3]) was 2 fold, the “Increase of FUR AUC” value (Bcrp; [4]) was 2 fold and the “Increase of FUR Cmax” value (Bcrp; [4]) was 2 fold. For the same compound, the “Increase of FUR AUC” value (Bcrp; [5]) was greater than 2 fold, the “Increase of FUR Cmax” value (Bcrp; [5]) was greater than 2 fold and the “Increase of FUR AUC” value (Bcrp; [6]) was 3- to 4 fold. For the same compound, the “Increase of FUR Cmax” value (Bcrp; [6]) was 3- to 4 fold and the “Sex-effect on AUC, Cmax, or CLR of FUR when co-administered with NOV” value (Bcrp; male vs female rats, FUR 5 mg/kg PO, NOV 20 mg/kg PO) was “No sex-effect”.
